The text below walks through data of publication PMC6162527.

Protein sequences, listed by entry. Tags and fused reporters are not part of them.
UniProt Q96D31: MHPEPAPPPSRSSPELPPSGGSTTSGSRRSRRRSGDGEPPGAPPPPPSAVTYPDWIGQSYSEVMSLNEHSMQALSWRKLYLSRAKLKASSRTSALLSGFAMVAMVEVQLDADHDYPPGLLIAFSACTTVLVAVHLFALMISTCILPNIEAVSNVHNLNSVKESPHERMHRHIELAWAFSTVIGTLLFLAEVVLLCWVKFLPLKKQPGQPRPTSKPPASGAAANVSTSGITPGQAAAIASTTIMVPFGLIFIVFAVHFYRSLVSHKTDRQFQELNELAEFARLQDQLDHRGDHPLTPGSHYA

Results are given in words; binding and its absence hold for the method and conditions named. Binding seen in cells or lysates may run through a third protein. Some entries that bind do so weakly or less than the wild type.

Experiment [1] concerns the target T1, TRPC6 (human (endogenous in MCF7 and MDA-MB-231)) (UniProt Q9Y210).
T1 sequence: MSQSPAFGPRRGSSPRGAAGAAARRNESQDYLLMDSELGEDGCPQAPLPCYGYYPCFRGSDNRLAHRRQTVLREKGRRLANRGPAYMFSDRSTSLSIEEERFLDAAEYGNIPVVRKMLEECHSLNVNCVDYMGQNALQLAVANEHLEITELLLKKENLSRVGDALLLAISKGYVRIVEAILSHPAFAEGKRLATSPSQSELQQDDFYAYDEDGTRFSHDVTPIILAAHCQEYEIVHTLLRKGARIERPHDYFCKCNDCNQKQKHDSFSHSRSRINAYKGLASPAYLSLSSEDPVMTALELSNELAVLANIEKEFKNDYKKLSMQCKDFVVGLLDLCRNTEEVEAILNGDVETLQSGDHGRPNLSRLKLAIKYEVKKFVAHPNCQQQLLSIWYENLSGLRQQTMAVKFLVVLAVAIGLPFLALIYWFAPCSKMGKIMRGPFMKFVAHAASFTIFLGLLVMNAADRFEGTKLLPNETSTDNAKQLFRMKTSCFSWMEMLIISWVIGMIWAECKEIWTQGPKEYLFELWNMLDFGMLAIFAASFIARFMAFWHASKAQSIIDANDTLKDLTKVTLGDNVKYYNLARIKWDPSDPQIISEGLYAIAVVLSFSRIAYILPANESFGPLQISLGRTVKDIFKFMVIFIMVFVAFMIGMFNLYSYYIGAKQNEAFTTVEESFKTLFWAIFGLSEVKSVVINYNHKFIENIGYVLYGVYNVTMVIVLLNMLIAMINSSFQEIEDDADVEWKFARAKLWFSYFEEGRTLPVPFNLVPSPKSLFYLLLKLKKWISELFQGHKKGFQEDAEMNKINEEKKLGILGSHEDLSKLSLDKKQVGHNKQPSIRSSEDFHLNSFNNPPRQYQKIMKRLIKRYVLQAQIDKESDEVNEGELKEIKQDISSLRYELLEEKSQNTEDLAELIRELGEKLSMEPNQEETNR
Nature of the experiment: co-IP; whole cell lysates (NP-40 buffer) of MCF7 and MDA-MB-231 cells, resting or treated with 1 uM TG for 3 min; immunoprecipitated with anti-TRPC6 antibody and protein A-agarose overnight at 4 C; blotted with anti-Orai1 or anti-Orai3 antibody.

In experiment [2] the target is Orai1 (human (endogenous in MCF7 and MDA-MB-231)) (UniProt Q96D31). As to the kind of experiment: co-IP; cell lysates immunoprecipitated with anti-Orai1 or anti-Orai3 antibody, blotted with anti-TRPC6 antibody (Figure S1).

Regarding Orai1 (from UniProt Q96D31 1-301), the binding entry in experiment [1] is reported as “binds”.

B1: TRPC6 (protein, UniProt Q9Y210 1-931)
chain: MSQSPAFGPRRGSSPRGAAGAAARRNESQDYLLMDSELGEDGCPQAPLPCYGYYPCFRGSDNRLAHRRQTVLREKGRRLANRGPAYMFSDRSTSLSIEEERFLDAAEYGNIPVVRKMLEECHSLNVNCVDYMGQNALQLAVANEHLEITELLLKKENLSRVGDALLLAISKGYVRIVEAILSHPAFAEGKRLATSPSQSELQQDDFYAYDEDGTRFSHDVTPIILAAHCQEYEIVHTLLRKGARIERPHDYFCKCNDCNQKQKHDSFSHSRSRINAYKGLASPAYLSLSSEDPVMTALELSNELAVLANIEKEFKNDYKKLSMQCKDFVVGLLDLCRNTEEVEAILNGDVETLQSGDHGRPNLSRLKLAIKYEVKKFVAHPNCQQQLLSIWYENLSGLRQQTMAVKFLVVLAVAIGLPFLALIYWFAPCSKMGKIMRGPFMKFVAHAASFTIFLGLLVMNAADRFEGTKLLPNETSTDNAKQLFRMKTSCFSWMEMLIISWVIGMIWAECKEIWTQGPKEYLFELWNMLDFGMLAIFAASFIARFMAFWHASKAQSIIDANDTLKDLTKVTLGDNVKYYNLARIKWDPSDPQIISEGLYAIAVVLSFSRIAYILPANESFGPLQISLGRTVKDIFKFMVIFIMVFVAFMIGMFNLYSYYIGAKQNEAFTTVEESFKTLFWAIFGLSEVKSVVINYNHKFIENIGYVLYGVYNVTMVIVLLNMLIAMINSSFQEIEDDADVEWKFARAKLWFSYFEEGRTLPVPFNLVPSPKSLFYLLLKLKKWISELFQGHKKGFQEDAEMNKINEEKKLGILGSHEDLSKLSLDKKQVGHNKQPSIRSSEDFHLNSFNNPPRQYQKIMKRLIKRYVLQAQIDKESDEVNEGELKEIKQDISSLRYELLEEKSQNTEDLAELIRELGEKLSMEPNQEETNR
In the case of B1, the binding entry in experiment [2] was “binds”.
